The target in the assay is GST-tagged Akt1 protein (UniProt P31749). Nature of the assay: pull-down; GST-vector or GST-Akt purified from HEK293T cells incubated with total lysates of MCF7 cells in 10% serum; Western blot of eluates; only the target purified. (In western blotting, separated proteins are transferred to a membrane and probed.)

Chains of the proteins cited; added tags and fusions are not shown.
UniProt P31749: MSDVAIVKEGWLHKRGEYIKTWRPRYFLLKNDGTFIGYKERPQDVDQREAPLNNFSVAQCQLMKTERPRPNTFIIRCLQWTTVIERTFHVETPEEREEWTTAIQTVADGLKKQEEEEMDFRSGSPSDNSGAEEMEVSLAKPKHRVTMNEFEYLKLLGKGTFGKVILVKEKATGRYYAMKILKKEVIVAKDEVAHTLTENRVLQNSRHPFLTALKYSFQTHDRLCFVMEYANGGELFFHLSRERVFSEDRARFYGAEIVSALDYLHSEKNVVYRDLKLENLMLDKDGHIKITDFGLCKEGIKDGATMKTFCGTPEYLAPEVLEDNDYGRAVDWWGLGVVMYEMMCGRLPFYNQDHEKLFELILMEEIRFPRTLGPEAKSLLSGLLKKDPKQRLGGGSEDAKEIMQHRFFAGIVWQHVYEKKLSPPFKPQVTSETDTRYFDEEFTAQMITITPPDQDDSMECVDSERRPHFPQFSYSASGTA
UniProt Q8IZL8: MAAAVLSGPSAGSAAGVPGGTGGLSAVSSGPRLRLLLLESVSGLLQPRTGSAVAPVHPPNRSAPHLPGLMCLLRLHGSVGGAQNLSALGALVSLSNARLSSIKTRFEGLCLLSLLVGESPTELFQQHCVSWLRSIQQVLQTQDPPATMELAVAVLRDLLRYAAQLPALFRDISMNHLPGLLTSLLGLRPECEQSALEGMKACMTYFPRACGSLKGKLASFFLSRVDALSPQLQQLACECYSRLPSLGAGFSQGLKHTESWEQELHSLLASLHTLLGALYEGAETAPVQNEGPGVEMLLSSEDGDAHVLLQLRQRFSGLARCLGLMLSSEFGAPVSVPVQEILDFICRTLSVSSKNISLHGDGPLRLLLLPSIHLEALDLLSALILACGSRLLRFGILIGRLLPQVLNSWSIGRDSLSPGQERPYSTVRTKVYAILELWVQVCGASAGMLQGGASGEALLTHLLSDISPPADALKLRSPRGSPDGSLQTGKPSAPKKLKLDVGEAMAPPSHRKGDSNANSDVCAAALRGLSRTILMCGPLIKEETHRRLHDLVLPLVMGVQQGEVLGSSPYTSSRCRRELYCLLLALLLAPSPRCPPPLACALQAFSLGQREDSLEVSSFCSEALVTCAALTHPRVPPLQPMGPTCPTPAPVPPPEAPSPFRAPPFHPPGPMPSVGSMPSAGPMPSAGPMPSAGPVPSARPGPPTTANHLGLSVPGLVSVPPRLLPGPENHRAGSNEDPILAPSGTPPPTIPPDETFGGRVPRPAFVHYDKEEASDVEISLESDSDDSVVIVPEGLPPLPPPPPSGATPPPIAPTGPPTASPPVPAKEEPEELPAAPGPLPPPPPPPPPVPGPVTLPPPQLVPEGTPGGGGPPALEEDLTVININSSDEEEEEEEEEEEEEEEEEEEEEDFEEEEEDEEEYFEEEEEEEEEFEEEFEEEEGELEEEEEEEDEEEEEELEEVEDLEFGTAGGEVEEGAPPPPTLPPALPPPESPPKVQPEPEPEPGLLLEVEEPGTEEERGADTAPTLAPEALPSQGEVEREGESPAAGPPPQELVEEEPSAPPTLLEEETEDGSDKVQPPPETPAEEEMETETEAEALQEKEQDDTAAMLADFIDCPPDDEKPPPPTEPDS

The source of these data is article PMC8991965.

No constants are given. Whether binding was seen depends on the method and setting. In cells and extracts the contact can be indirect. Some results given as binding are weak or reduced against the parent protein; the word gives no strength.

As to “Proline-, glutamic acid-, and leucine-rich protein 1 (PELP1), endogenous (from UniProt Q8IZL8 1-1130)”, the binding entry is “binds”.
